Test results from US20130338130A1 (priority 2009, published 2013).
“And” between values parts separate entries of the source, which are not always exact repeats. Equal values may be shown once. Read-outs that look alike come from different tables or passages of the source. The source gives many values for each of these; only a part stands here.

Test system: ATCC strain 43300 Staphylococcus aureus
Details: 60 μg/ml oxacillin + MSM (% in label); for survival (cfu/ml): triplicate platings

CS(C)(=O)=O [MSM, Methylsulfonylmethane]
survival (cfu/ml) (48 hours, listed as 16% MSM): 9.0 × 10^1 cfu/ml and 6.0 × 10^1 cfu/ml | survival, Average Log (72 hours, listed as 5% MSM): 5.5 Log | survival, Average Log (72 hours, listed as 6% MSM): 2.8 Log | survival, Average Log (72 hours, listed as 7% MSM): 5.5 Log | survival, Average Log (72 hours, listed as 8% MSM): 5.5 Log | survival, Average Log (72 hours, listed as 9% MSM): 2.5 Log | survival, Average Log (72 hours, listed as 10% MSM): 2.6 Log | survival (cfu/ml) (72 hours, listed as 5% MSM): >3.3 × 10^5 cfu/ml | survival (cfu/ml) (72 hours, listed as 6% MSM): 6.5 × 10^2 cfu/ml and 6.4 × 10^2 cfu/ml and 6.1 × 10^2 cfu/ml | survival (cfu/ml) (72 hours, listed as 7% MSM): >3.3 × 10^5 cfu/ml | survival (cfu/ml) (72 hours, listed as 8% MSM): >3.3 × 10^5 cfu/ml | survival (cfu/ml) (72 hours, listed as 9% MSM): 3.3 × 10^3 cfu/ml and 3.2 × 10^3 cfu/ml | survival (cfu/ml) (72 hours, listed as 10% MSM): 3.9 × 10^2 cfu/ml and 4.0 × 10^2 cfu/ml and 3.4 × 10^2 cfu/ml | survival (cfu/ml) (72 hours, listed as 11% MSM): 1.0 × 10^1 cfu/ml and 2.0 × 10^1 cfu/ml | survival (cfu/ml) (72 hours, listed as 12% MSM): 2.8 × 10^2 cfu/ml and 2.1 × 10^2 cfu/ml and 2.5 × 10^2 cfu/ml | survival (cfu/ml) (72 hours, listed as 13% MSM): 1.0 × 10^1 cfu/ml | survival (cfu/ml) (72 hours, listed as 14% MSM): 2.0 × 10^1 cfu/ml and 4.0 × 10^1 cfu/ml | survival (cfu/ml) (72 hours, listed as 15% MSM): 0 cfu/ml | survival (cfu/ml) (72 hours, listed as 16% MSM): 6.0 × 10^1 cfu/ml and 5.0 × 10^1 cfu/ml | survival, Average Log (96 hours, listed as 5% MSM): 5.5 Log | survival, Average Log (96 hours, listed as 6% MSM): 3.6 Log | survival, Average Log (96 hours, listed as 7% MSM): 5.5 Log | survival, Average Log (96 hours, listed as 8% MSM): 5.5 Log | survival, Average Log (96 hours, listed as 9% MSM): 5.5 Log | survival, Average Log (96 hours, listed as 10% MSM): 3.6 Log | survival, Average Log (96 hours, listed as 12% MSM): 3.5 Log | survival, Average Log (96 hours, listed as 13% MSM): 1.6 Log | survival, Average Log (96 hours, listed as 16% MSM): 1.3 Log | survival (cfu/ml) (96 hours, listed as 5% MSM): >3.3 × 10^5 cfu/ml | survival (cfu/ml) (96 hours, listed as 6% MSM): 4.4 × 10^3 cfu/ml and 4.5 × 10^3 cfu/ml | survival (cfu/ml) (96 hours, listed as 7% MSM): >3.3 × 10^5 cfu/ml | survival (cfu/ml) (96 hours, listed as 8% MSM): >3.3 × 10^5 cfu/ml | survival (cfu/ml) (96 hours, listed as 9% MSM): >3.3 × 10^5 cfu/ml | survival (cfu/ml) (96 hours, listed as 10% MSM): 3.9 × 10^3 cfu/ml and 4.0 × 10^3 cfu/ml and 3.5 × 10^3 cfu/ml | survival (cfu/ml) (96 hours, listed as 11% MSM): 0 cfu/ml | survival (cfu/ml) (96 hours, listed as 12% MSM): 3.0 × 10^3 cfu/ml and 3.5 × 10^3 cfu/ml and 3.1 × 10^3 cfu/ml | survival (cfu/ml) (96 hours, listed as 13% MSM): 4.0 × 10^1 cfu/ml and 5.0 × 10^1 cfu/ml | survival (cfu/ml) (96 hours, listed as 14% MSM): 0 cfu/ml | survival (cfu/ml) (96 hours, listed as 15% MSM): 0 cfu/ml | survival (cfu/ml) (96 hours, listed as 16% MSM): 2.0 × 10^1 cfu/ml and 3.0 × 10^1 cfu/ml | survival, Average Log (120 hours, listed as 5% MSM): 5.5 Log | survival, Average Log (120 hours, listed as 6% MSM): 4.5 Log | survival, Average Log (120 hours, listed as 7% MSM): 5.5 Log | survival, Average Log (120 hours, listed as 8% MSM): 5.5 Log | survival, Average Log (120 hours, listed as 9% MSM): 5.5 Log | survival, Average Log (120 hours, listed as 10% MSM): 4.2 Log | survival, Average Log (120 hours, listed as 11% MSM): 0 Log | survival, Average Log (120 hours, listed as 12% MSM): 4.2 Log | survival, Average Log (120 hours, listed as 13% MSM): 0 Log | survival, Average Log (120 hours, listed as 14% MSM): 0 Log | survival, Average Log (120 hours, listed as 15% MSM): 0 Log | survival, Average Log (120 hours, listed as 16% MSM): 0 Log | survival (cfu/ml) (120 hours, listed as 5% MSM): >3.3 × 10^5 cfu/ml | survival (cfu/ml) (120 hours, listed as 6% MSM): 3.7 × 10^4 cfu/ml and 3.4 × 10^4 cfu/ml and 2.4 × 10^4 cfu/ml | survival (cfu/ml) (120 hours, listed as 7% MSM): >3.3 × 10^5 cfu/ml | survival (cfu/ml) (120 hours, listed as 8% MSM): >3.3 × 10^5 cfu/ml | survival (cfu/ml) (120 hours, listed as 9% MSM): >3.3 × 10^5 cfu/ml | survival (cfu/ml) (120 hours, listed as 10% MSM): 1.6 × 10^4 cfu/ml and 1.5 × 10^4 cfu/ml and 1.7 × 10^4 cfu/ml | survival (cfu/ml) (120 hours, listed as 11% MSM): 0 cfu/ml | survival (cfu/ml) (120 hours, listed as 12% MSM): 1.72 × 10^4 cfu/ml and 1.6 × 10^4 cfu/ml and 1.5 × 10^4 cfu/ml | survival (cfu/ml) (120 hours, listed as 13% MSM): 0 cfu/ml | survival (cfu/ml) (120 hours, listed as 14% MSM): 0 cfu/ml | survival (cfu/ml) (120 hours, listed as 15% MSM): 0 cfu/ml | survival (cfu/ml) (120 hours, listed as 16% MSM): 0 cfu/ml
